Differences between knockout arms are mostly noise.
Tested on: BT-20
Experiment: relative cell number vs DMSO control (72 h) (% of DMSO); higher = less growth inhibition (more cells)
Experimental: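 QMAP-Seq: a pool of 5 breast cancer cell lines (ZR-75-1, SKBR3, HCC-38, MDA-MB-231, BT-20), each carrying 12 doxycycline-inducible Cas9 sgRNA perturbations (11 knockouts plus non-targeting sgNT), was treated with compounds for 72 h at four 10-fold doses (10 nM-10 uM or 1 nM-1 uM range). Barcodes were amplified and sequenced, and cell number was interpolated from 293T spike-in standard curves. The result is expressed as % of the median of DMSO wells. Two biological replicates.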

C=C1C(=O)O[C@H]2[C@H]1CC/C(C)=C/CC[C@@]1(C)O[C@@H]21 [Parthenolide]
Conditions	relative cell number
sgRNA knockout: sgATF3, 10 nM	102
sgRNA knockout: sgATF3, 100 nM	103
sgRNA knockout: sgATF3, 1000 nM	110
sgRNA knockout: sgATF3, 10000 nM	112
sgRNA knockout: sgATF4, 10 nM	107
sgRNA knockout: sgATF4, 100 nM	110
sgRNA knockout: sgATF4, 1000 nM	93.6
sgRNA knockout: sgATF4, 10000 nM	110.4
sgRNA knockout: sgATF6, 10 nM	84.9
sgRNA knockout: sgATF6, 100 nM	116
sgRNA knockout: sgATF6, 1000 nM	106
sgRNA knockout: sgATF6, 10000 nM	102
sgRNA knockout: sgATG7, 10 nM	107
sgRNA knockout: sgATG7, 100 nM	108
sgRNA knockout: sgATG7, 1000 nM	111
sgRNA knockout: sgATG7, 10000 nM	103
sgRNA knockout: sgERN1, 10 nM	98.9
sgRNA knockout: sgERN1, 100 nM	113
sgRNA knockout: sgERN1, 1000 nM	104
sgRNA knockout: sgERN1, 10000 nM	122
sgRNA knockout: sgHSF1, 10 nM	116
sgRNA knockout: sgHSF1, 100 nM	96.6
sgRNA knockout: sgHSF1, 1000 nM	107.4
sgRNA knockout: sgHSF1, 10000 nM	122
sgRNA knockout: sgHSF2, 10 nM	105
sgRNA knockout: sgHSF2, 100 nM	114
sgRNA knockout: sgHSF2, 1000 nM	86
sgRNA knockout: sgHSF2, 10000 nM	102
sgRNA knockout: sgKEAP1, 10 nM	116
sgRNA knockout: sgKEAP1, 100 nM	110
sgRNA knockout: sgKEAP1, 1000 nM	116
sgRNA knockout: sgKEAP1, 10000 nM	104
sgRNA knockout: sgNFE2L2, 10 nM	102
sgRNA knockout: sgNFE2L2, 100 nM	114
sgRNA knockout: sgNFE2L2, 1000 nM	108
sgRNA knockout: sgNFE2L2, 10000 nM	105
sgRNA knockout: sgSLC35F2, 10 nM	105
sgRNA knockout: sgSLC35F2, 100 nM	115
sgRNA knockout: sgSLC35F2, 1000 nM	105.3
sgRNA knockout: sgSLC35F2, 10000 nM	120
sgRNA knockout: sgXBP1, 10 nM	106.45
sgRNA knockout: sgXBP1, 100 nM	113
sgRNA knockout: sgXBP1, 1000 nM	112
sgRNA knockout: sgXBP1, 10000 nM	115

C[C@@H](Nc1cc(F)cc(F)c1)c1cc(C(=O)N(C)C)cc2c(=O)cc(N3CCOCC3)oc12 [AZD8186]
Conditions	relative cell number
sgRNA knockout: sgATF3, 10 nM	111
sgRNA knockout: sgATF3, 100 nM	112
sgRNA knockout: sgATF3, 1000 nM	89.7
sgRNA knockout: sgATF3, 10000 nM	87.8
sgRNA knockout: sgATF4, 10 nM	108
sgRNA knockout: sgATF4, 100 nM	128
sgRNA knockout: sgATF4, 1000 nM	112
sgRNA knockout: sgATF4, 10000 nM	91.58
sgRNA knockout: sgATF6, 10 nM	93.7
sgRNA knockout: sgATF6, 100 nM	108
sgRNA knockout: sgATF6, 1000 nM	88.9
sgRNA knockout: sgATF6, 10000 nM	87.6
sgRNA knockout: sgATG7, 10 nM	93.7
sgRNA knockout: sgATG7, 100 nM	135
sgRNA knockout: sgATG7, 1000 nM	93.6
sgRNA knockout: sgATG7, 10000 nM	92
sgRNA knockout: sgERN1, 10 nM	97.9
sgRNA knockout: sgERN1, 100 nM	125
sgRNA knockout: sgERN1, 1000 nM	86.187
sgRNA knockout: sgERN1, 10000 nM	84
sgRNA knockout: sgHSF1, 10 nM	94.5
sgRNA knockout: sgHSF1, 100 nM	110.5
sgRNA knockout: sgHSF1, 1000 nM	82.7
sgRNA knockout: sgHSF1, 10000 nM	98.5
sgRNA knockout: sgHSF2, 10 nM	106
sgRNA knockout: sgHSF2, 100 nM	102
sgRNA knockout: sgHSF2, 1000 nM	100
sgRNA knockout: sgHSF2, 10000 nM	76.8
sgRNA knockout: sgKEAP1, 10 nM	92.6
sgRNA knockout: sgKEAP1, 100 nM	108
sgRNA knockout: sgKEAP1, 1000 nM	88.1
sgRNA knockout: sgKEAP1, 10000 nM	91.8
sgRNA knockout: sgNFE2L2, 10 nM	119
sgRNA knockout: sgNFE2L2, 100 nM	129
sgRNA knockout: sgNFE2L2, 1000 nM	100
sgRNA knockout: sgNFE2L2, 10000 nM	81.2
sgRNA knockout: sgSLC35F2, 10 nM	101
sgRNA knockout: sgSLC35F2, 100 nM	125
sgRNA knockout: sgSLC35F2, 1000 nM	99.3
sgRNA knockout: sgSLC35F2, 10000 nM	95.2
sgRNA knockout: sgXBP1, 10 nM	104
sgRNA knockout: sgXBP1, 100 nM	117
sgRNA knockout: sgXBP1, 1000 nM	100
sgRNA knockout: sgXBP1, 10000 nM	92.8

O=C(Cc1ccc(-c2ccc(OCCN3CCOCC3)cc2)cn1)NCc1ccccc1 [KX2391]
Conditions	relative cell number
sgRNA knockout: sgATF3, 10 nM	131
sgRNA knockout: sgATF3, 100 nM	41.4
sgRNA knockout: sgATF3, 1000 nM	25.6
sgRNA knockout: sgATF3, 10000 nM	32.6
sgRNA knockout: sgATF4, 10 nM	126
sgRNA knockout: sgATF4, 100 nM	34.8
sgRNA knockout: sgATF4, 1000 nM	30.9
sgRNA knockout: sgATF4, 10000 nM	37.76
sgRNA knockout: sgATF6, 10 nM	109
sgRNA knockout: sgATF6, 100 nM	28.1
sgRNA knockout: sgATF6, 1000 nM	34.6
sgRNA knockout: sgATF6, 10000 nM	30.1
sgRNA knockout: sgATG7, 10 nM	122
sgRNA knockout: sgATG7, 100 nM	26.7
sgRNA knockout: sgATG7, 1000 nM	34
sgRNA knockout: sgATG7, 10000 nM	36.4
sgRNA knockout: sgERN1, 10 nM	127
sgRNA knockout: sgERN1, 100 nM	39.03
sgRNA knockout: sgERN1, 1000 nM	34.2
sgRNA knockout: sgERN1, 10000 nM	37.3
sgRNA knockout: sgHSF1, 10 nM	119
sgRNA knockout: sgHSF1, 100 nM	35.9
sgRNA knockout: sgHSF1, 1000 nM	29.5
sgRNA knockout: sgHSF1, 10000 nM	35.1
sgRNA knockout: sgHSF2, 10 nM	118
sgRNA knockout: sgHSF2, 100 nM	34.7
sgRNA knockout: sgHSF2, 1000 nM	42.5
sgRNA knockout: sgHSF2, 10000 nM	37.6
sgRNA knockout: sgKEAP1, 10 nM	124
sgRNA knockout: sgKEAP1, 100 nM	37.9
sgRNA knockout: sgKEAP1, 1000 nM	29.8
sgRNA knockout: sgKEAP1, 10000 nM	36.2
sgRNA knockout: sgNFE2L2, 10 nM	123
sgRNA knockout: sgNFE2L2, 100 nM	32.9
sgRNA knockout: sgNFE2L2, 1000 nM	42.1
sgRNA knockout: sgNFE2L2, 10000 nM	24.9
sgRNA knockout: sgSLC35F2, 10 nM	117
sgRNA knockout: sgSLC35F2, 100 nM	41
sgRNA knockout: sgSLC35F2, 1000 nM	33.6
sgRNA knockout: sgSLC35F2, 10000 nM	42.5
sgRNA knockout: sgXBP1, 10 nM	137
sgRNA knockout: sgXBP1, 100 nM	44.1
sgRNA knockout: sgXBP1, 1000 nM	32.8
sgRNA knockout: sgXBP1, 10000 nM	37.52
